Measurements from PubChem BioAssay AID330 (DTP/NCI, 2004).
The list does not hold the whole screen: it is rich in T/C values a quarter to a half above the control, in often repeated tests (any T/C) and in doses without a T/C. Other doses and runs of a compound stand elsewhere. T/C: endpoint of the treated group in % of that of the vehicle group. Some entries give survivors of the animals treated and no T/C: the source holds a T/C of zero for them, seemingly a mark for toxic or unscored doses. Some doses without a T/C left all or most animals alive at the check, yet need not have been tolerated: survival well below the control is almost never listed, so the zero probably covers shortened survival too. Counts of survivors are from the toxicity check (mostly the fifth day) where no day follows; animals may have died later. Schedule codes are those of the source, read here as Q, the interval in days (D) or hours (H), X, the number of doses. Some molecules as drawn cover several salts, stereoisomers or complexes of the source; a dose is that of the sample tested. For survival time, this PubChem deposit counts one and a half times the control or more as active, and values a quarter to a half above the control carry no call in these data; other NCI protocols may use other cut-offs.

System: P388 leukemia ip, CD2F1 mice, survival T/C
Assay: NCI In Vivo Anticancer Drug Screen. Data for tumor model P388 Leukemia (intraperitoneal) in CD2F1 (CDF1) mice
Details: T/C endpoint: median survival time, higher T/C = longer survival
[1] = dose: 240.0 mg/kg/injection, schedule: Q01DX005 (ip), vehicle: saline with Tween-80
[2] = dose: 100.0 mg/kg/injection, schedule: Q01DX009 (ip), vehicle: saline with Tween-80
[3] = dose: 200.0 mg/kg/injection, schedule: Q01DX009 (ip), vehicle: saline with Tween-80

C(CCc1nnc2c(n1)CCCC2)Cc1nnc2c(n1)CCCC2
survivor count [1]: 0 of 6

Nc1nc(-c2ccccn2)cc2ccccc12
survivor count [1]: 0 of 6

CCC1C[N+]2(C)CCc3cc(OC)c(OC)cc3C2CC1=O (centres undefined)
survivor count [2]: 2 of 6
survivor count [3]: 0 of 6

C=C1C(=O)OC2CC(C)C3C=CC(=O)C3CC12 (centres undefined)
survivor count (dose: 1.2 mg/kg/injection, schedule: Q01DX009 (ip), vehicle: Klucel (hydroxypropylcellulose) (HPC)): 6 of 6
survivor count (dose: 4.69 mg/kg/injection, schedule: Q01DX009 (ip), vehicle: Klucel (hydroxypropylcellulose) (HPC)): 3 of 6
survivor count (dose: 9.38 mg/kg/injection, schedule: Q01DX009 (ip), vehicle: Klucel (hydroxypropylcellulose) (HPC)): 0 of 6

CCCN(CCC)c1nc2ccc(NC(=O)OCC)cc2s1
survivor count [2]: 1 of 6
survivor count [3]: 0 of 6

CCCCCCCCSc1nc(Nc2cc(C(C)(C)C)c(O)c(C(C)(C)C)c2)nc(SCCCCCCCC)n1
survivor count [2]: 6 of 6

C=C(C[P+](c1ccccc1)(c1ccccc1)c1ccccc1)C(=O)OCC
survivor count (dose: 25.0 mg/kg/injection, schedule: Q01DX001 (ip), vehicle: suspension in saline): 4 of 5
survivor count (dose: 50.0 mg/kg/injection, schedule: Q01DX001 (ip), vehicle: suspension in saline): 1 of 5
survivor count (dose: 100.0 mg/kg/injection, schedule: Q01DX001 (ip), vehicle: saline): 0 of 5
survivor count (dose: 200.0 mg/kg/injection, schedule: Q01DX001 (ip), vehicle: saline): 0 of 5
survivor count (dose: 400.0 mg/kg/injection, schedule: Q01DX001 (ip), vehicle: saline): 0 of 5

CCCCCCCCCCCCNC(=S)C(=S)NCCCCCCCCCCCC
survivor count (dose: 200.0 mg/kg/injection, schedule: Q01DX009 (ip), vehicle: Klucel (hydroxypropylcellulose) (HPC)): 6 of 6

CC([NH-])C[NH-].O=S(=O)(O)O.[Pt+2] (centres undefined)
T/C (dose: 3.12 mg/kg/injection, schedule: Q04DX002 (ip), vehicle: saline): 130 % of control

COc1ccc2cc3[n+](cc2c1OC)CCc1cc2c(cc1-3)OCO2
T/C (dose: 10.0 mg/kg/injection, schedule: Q01DX009 (ip), vehicle: water): 132 % of control
survivor count (dose: 20.0 mg/kg/injection, schedule: Q01DX009 (ip), vehicle: water): 3 of 6
survivor count (dose: 25.0 mg/kg/injection, schedule: Q01DX009 (ip), vehicle: Klucel (hydroxypropylcellulose) (HPC)): 6 of 6
survivor count (dose: 40.0 mg/kg/injection, schedule: Q01DX009 (ip), vehicle: water): 0 of 6
survivor count (dose: 50.0 mg/kg/injection, schedule: Q01DX009 (ip), vehicle: Klucel (hydroxypropylcellulose) (HPC)): 0 of 6
survivor count (dose: 100.0 mg/kg/injection, schedule: Q01DX009 (ip), vehicle: Klucel (hydroxypropylcellulose) (HPC)): 0 of 6

CC([CH2][Sn]([CH3])([Cl])[c]1ccccc1)c1ccccc1 (centres undefined)
survivor count (dose: 25.0 mg/kg/injection, schedule: Q04DX003 (ip), vehicle: saline): 3 of 6
survivor count (dose: 50.0 mg/kg/injection, schedule: Q04DX003 (ip), vehicle: saline): 1 of 6
survivor count (dose: 100.0 mg/kg/injection, schedule: Q04DX003 (ip), vehicle: saline): 0 of 6
survivor count (dose: 200.0 mg/kg/injection, schedule: Q04DX003 (ip), vehicle: saline with Tween-80): 5 of 6
survivor count (dose: 400.0 mg/kg/injection, schedule: Q04DX003 (ip), vehicle: saline with Tween-80): 4 of 6

O=C1Nc2ccccc2/C1=N/N1C(=O)CSC1=S
survivor count (dose: 7.5 mg/kg/injection, schedule: Q01DX005 (ip), vehicle: Klucel (hydroxypropylcellulose) (HPC)): 6 of 6
survivor count (dose: 15.0 mg/kg/injection, schedule: Q01DX005 (ip), vehicle: Klucel (hydroxypropylcellulose) (HPC)): 3 of 6
survivor count (dose: 30.0 mg/kg/injection, schedule: Q01DX005 (ip), vehicle: Klucel (hydroxypropylcellulose) (HPC)): 0 of 6
survivor count (dose: 60.0 mg/kg/injection, schedule: Q01DX005 (ip), vehicle: Klucel (hydroxypropylcellulose) (HPC)): 0 of 6
survivor count (dose: 120.0 mg/kg/injection, schedule: Q01DX005 (ip), vehicle: Klucel (hydroxypropylcellulose) (HPC)): 0 of 6
survivor count (dose: 240.0 mg/kg/injection, schedule: Q01DX005 (ip), vehicle: Klucel (hydroxypropylcellulose) (HPC)): 0 of 6
